The text below walks through data of paper PMC10404369, “Epithelial cell adhesion molecule (EpCAM) regulates HGFR signaling to promote colon cancer progression and metastasis” (Journal of Translational Medicine, 2023).

Protein sequences, listed by entry. Tags and fused reporters are not part of them. Lines headed by an entry give the natural chain unless they say otherwise; changes in a name come on top. Chains listed by the source or under a name are the forms on record and can include a tag or linker. Residues count along the entry.
UniProt P08581: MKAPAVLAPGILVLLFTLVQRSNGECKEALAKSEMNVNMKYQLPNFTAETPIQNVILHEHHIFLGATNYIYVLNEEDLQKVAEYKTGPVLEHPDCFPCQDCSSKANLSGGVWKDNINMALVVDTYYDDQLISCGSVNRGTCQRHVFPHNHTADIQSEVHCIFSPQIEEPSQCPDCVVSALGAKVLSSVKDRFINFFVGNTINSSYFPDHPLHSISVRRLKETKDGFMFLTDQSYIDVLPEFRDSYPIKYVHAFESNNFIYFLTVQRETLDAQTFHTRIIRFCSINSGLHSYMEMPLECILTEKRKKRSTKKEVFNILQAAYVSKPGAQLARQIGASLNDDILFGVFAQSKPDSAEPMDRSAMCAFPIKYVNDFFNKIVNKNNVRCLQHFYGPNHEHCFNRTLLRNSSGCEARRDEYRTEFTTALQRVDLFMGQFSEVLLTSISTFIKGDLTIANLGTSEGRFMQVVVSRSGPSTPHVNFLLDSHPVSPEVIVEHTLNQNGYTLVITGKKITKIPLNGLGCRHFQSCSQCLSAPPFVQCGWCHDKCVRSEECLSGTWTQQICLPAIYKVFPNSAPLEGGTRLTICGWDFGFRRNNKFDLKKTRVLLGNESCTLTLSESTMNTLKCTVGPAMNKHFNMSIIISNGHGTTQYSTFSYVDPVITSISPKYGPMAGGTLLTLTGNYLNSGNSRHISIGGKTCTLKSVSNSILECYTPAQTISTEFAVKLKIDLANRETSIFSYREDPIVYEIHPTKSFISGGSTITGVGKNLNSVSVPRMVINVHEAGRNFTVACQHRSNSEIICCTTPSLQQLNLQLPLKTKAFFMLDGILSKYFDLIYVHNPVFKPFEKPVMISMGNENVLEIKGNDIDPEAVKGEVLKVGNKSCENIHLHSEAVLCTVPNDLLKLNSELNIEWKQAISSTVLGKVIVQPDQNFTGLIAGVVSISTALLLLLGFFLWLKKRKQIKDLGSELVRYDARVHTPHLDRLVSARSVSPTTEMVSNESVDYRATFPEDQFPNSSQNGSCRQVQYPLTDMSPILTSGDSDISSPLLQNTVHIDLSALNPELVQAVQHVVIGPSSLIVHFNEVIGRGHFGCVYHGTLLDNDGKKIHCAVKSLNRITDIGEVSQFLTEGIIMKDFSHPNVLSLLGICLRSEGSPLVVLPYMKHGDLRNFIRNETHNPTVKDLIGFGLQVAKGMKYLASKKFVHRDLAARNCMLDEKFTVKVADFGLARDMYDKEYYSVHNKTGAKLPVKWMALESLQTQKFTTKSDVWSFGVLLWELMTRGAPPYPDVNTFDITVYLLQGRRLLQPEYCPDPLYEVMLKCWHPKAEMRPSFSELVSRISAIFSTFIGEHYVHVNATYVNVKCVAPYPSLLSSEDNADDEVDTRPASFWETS
Hepatocyte growth factor receptor (HGFR), endogenous (human (endogenous in HCT116 and HT29)): residues 25-1390 of P08581
HGFRECD-c-Myc, extracellular domain of HGFR with c-Myc tag: residues 25-932 of P08581

These are yes or no findings as the source states them, for the method shown. For some of these results: In cells and extracts the contact can be indirect. Some entries that bind do so weakly or less than the wild type. For some of these results: Sequences can lack the tags named with a protein.

The target of test [1] is T1, EpEX_(ΔEGFI+II)-Fc (human) (UniProt P16422).
T1 sequence: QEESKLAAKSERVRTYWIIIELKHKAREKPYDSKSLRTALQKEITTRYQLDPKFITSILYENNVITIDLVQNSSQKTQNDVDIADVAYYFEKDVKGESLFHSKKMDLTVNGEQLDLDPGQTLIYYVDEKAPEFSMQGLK
Description: ELISA; HGFR-His recombinant protein (2 μg/ml) added to plates coated with EGF-like-domain deletion mutant-Fc (1 μg/ml); TMB colorimetric peroxidase assay; both purified. (In an ELISA, binding on a coated surface is turned into a signal by an enzyme label.)

For the next test, the target named is HGFR-Fc protein (human) (UniProt P08581). In words: ELISA; EpEX-His (2 μg/ml) co-treated with 1 μg IgG or EpAb2-6 added to HGFR-Fc-coated (1 μg/ml) plates; TMB colorimetric peroxidase assay; both purified.
In test [2] the target is Hepatocyte growth factor receptor (HGFR), endogenous (human (endogenous in HCT116 and HT29)) (UniProt P08581). In words: FRET or BRET; TIRF microscopy with FRET on fixed HCT116 cells co-stained with HGFR (AF488, donor) and EpEX (AF568, acceptor) antibodies; also after 24 h treatment with NMIgG, MT201, EpAb2-6 or hEpAb2-6 (20 μg/ml). A general note: In BRET a luciferase serves as donor, and the signal depends on an acceptor being close.

Test [3] addresses HGFRECD-c-Myc, extracellular domain of HGFR with c-Myc tag (human) (UniProt P08581). In words: co-IP; HEK293T cells transfected with HGFRECD-c-Myc and EpEX-His (full-length or EGF-like-domain deletion mutants); IP with anti-c-Myc, Western blotting with anti-cMyc and anti-His. (In western blotting, separated proteins are transferred to a membrane and probed.)
For test [4], the target named is Hepatocyte growth factor receptor (HGFR), endogenous (human (endogenous in HCT116 and HT29)) (UniProt P08581). In words: co-IP; endogenous proteins in HCT116 and HT29 cells; DTSSP cross-linker used to stabilise the complex; IP and Western blotting.
For test [5] the target is unchanged. Description: co-IP; endogenous proteins; HCT116 cells treated with NMIgG or EpAb2-6 (20 μg/ml) for 24 h, IP with anti-EpCAM or anti-HGFR antibodies, Western blotting.
The target in test [6] is HGFRECD-c-Myc, extracellular domain of HGFR with c-Myc tag (human) (UniProt P08581). In words: co-IP; HEK293T cells transfected with HGFRECD-c-Myc and EpCAM-V5 (full-length or EGF-like-domain deletion mutants); IP with anti-V5 or anti-c-Myc antibody, Western blotting.

Turning to “HGFRECD-His recombinant protein (from UniProt P08581 25-932) (domain or fragment)”, the binding result in test [1] is given as “no binding (tested: 2 μg/ml)”.

B1: EpEX-His recombinant protein, purified (domain or fragment, UniProt P16422 24-265)
chain: QEECVCENYKLAVNCFVNNNRQCQCTSVGAQNTVICSKLAAKCLVMKAEMNGSKLGRRAKPEGALQNNDGLYDPDCDESGLFKAKQCNGTSMCWCVNTAGVRRTDKDTEITCSERVRTYWIIIELKHKAREKPYDSKSLRTALQKEITTRYQLDPKFITSILYENNVITIDLVQNSSQKTQNDVDIADVAYYFEKDVKGESLFHSKKMDLTVNGEQLDLDPGQTLIYYVDEKAPEFSMQGLK
In the case of B1, in the test with HGFR-Fc protein (human), the binding result is “binds”.

B2: Extracellular domain of EpCAM (EpEX), endogenous in HCT116 cells, stained with an EpEX antibody (domain or fragment, UniProt P16422 24-265)
chain: QEECVCENYKLAVNCFVNNNRQCQCTSVGAQNTVICSKLAAKCLVMKAEMNGSKLGRRAKPEGALQNNDGLYDPDCDESGLFKAKQCNGTSMCWCVNTAGVRRTDKDTEITCSERVRTYWIIIELKHKAREKPYDSKSLRTALQKEITTRYQLDPKFITSILYENNVITIDLVQNSSQKTQNDVDIADVAYYFEKDVKGESLFHSKKMDLTVNGEQLDLDPGQTLIYYVDEKAPEFSMQGLK
Turning to B2, in test [2], the binding result is listed as “binds”.

B3: EpEX-His, wild type, expressed in HEK293T (domain or fragment, UniProt P16422 24-265)
chain: QEECVCENYKLAVNCFVNNNRQCQCTSVGAQNTVICSKLAAKCLVMKAEMNGSKLGRRAKPEGALQNNDGLYDPDCDESGLFKAKQCNGTSMCWCVNTAGVRRTDKDTEITCSERVRTYWIIIELKHKAREKPYDSKSLRTALQKEITTRYQLDPKFITSILYENNVITIDLVQNSSQKTQNDVDIADVAYYFEKDVKGESLFHSKKMDLTVNGEQLDLDPGQTLIYYVDEKAPEFSMQGLK
In the case of B3, the binding result in test [3] is “binds”.

B4: Epithelial cell adhesion molecule (EpCAM), endogenous (protein, UniProt P16422 24-314)
chain: QEECVCENYKLAVNCFVNNNRQCQCTSVGAQNTVICSKLAAKCLVMKAEMNGSKLGRRAKPEGALQNNDGLYDPDCDESGLFKAKQCNGTSMCWCVNTAGVRRTDKDTEITCSERVRTYWIIIELKHKAREKPYDSKSLRTALQKEITTRYQLDPKFITSILYENNVITIDLVQNSSQKTQNDVDIADVAYYFEKDVKGESLFHSKKMDLTVNGEQLDLDPGQTLIYYVDEKAPEFSMQGLKAGVIAVIVVVVIAVVAGIVVLVISRKKRMAKYEKAEIKEMGEMHRELNA
Consider B4, for which the binding entry in test [4] and in test [5] was “binds” throughout.

B5: EpCAM-V5, full-length (protein, UniProt P16422 24-314)
chain: QEECVCENYKLAVNCFVNNNRQCQCTSVGAQNTVICSKLAAKCLVMKAEMNGSKLGRRAKPEGALQNNDGLYDPDCDESGLFKAKQCNGTSMCWCVNTAGVRRTDKDTEITCSERVRTYWIIIELKHKAREKPYDSKSLRTALQKEITTRYQLDPKFITSILYENNVITIDLVQNSSQKTQNDVDIADVAYYFEKDVKGESLFHSKKMDLTVNGEQLDLDPGQTLIYYVDEKAPEFSMQGLKAGVIAVIVVVVIAVVAGIVVLVISRKKRMAKYEKAEIKEMGEMHRELNA
As for B5, the binding entry in test [6] is “binds”.
